{"source": "patent US20230201209A1", "about": "“PHARMACEUTICAL COMPOSITION FOR PREVENTING OR TREATING CANCER CONTAINING ANTIVIRAL AGENT AND ANTIDEPRESSANT AS ACTIVE INGREDIENTS” (FRONTBIO INC., priority 2020, published 2023)", "test_system": "various cancer cells", "experiment": "MTT analysis, summary statements on various cancer cells", "format": "cell-based", "conditions": "treated singly or in a complex, mixed or combined manner", "protocol": "Specifically, ASPC-1 cell line, which is a pancreatic cancer cell line, and HCT116 cell line, which is a colon cancer cell line, was incubated in a 100 mm culture dish using DMEM-10% FBS under 5% CO2 at 37° C., inoculated into each well of a 96-well plate at 20% confluence, and incubated for 24 hours. The incubated cell lines were treated with efavirenz at a concentration of 2 μM and fluoxetine at a concentration of 2 μM alone or in combination and cultured in a CO2 incubator for 24 hours. The culture medium was removed from each well, 100 pl of a fresh culture medium was added, and 10 μl of a 12 mM MTT stock solution (5 mg MTT/PBS) was added, and incubation was performed at 37° C. for 2 hours. Thereafter, 100 pl of SDS-HCl solution (1 g SDS/10 ml 0.01 M HCl), which was a reaction terminating solution, was added, incubation was performed at 37° C. for 4 hours, and OD was measured at 570 nm using a microplate leader. Percentage (%) growth inhibition was calculated by comparing the OD thus measured to the OD of the cells not treated with drugs.", "note": "At least one structure is not confirmed: it was looked up by name or label, or the drawing left a doubt.", "data": [{"smiles": "Cc1cc(/C=C/C#N)cc(C)c1Nc1ccnc(Nc2ccc(C#N)cc2)n1", "note": "[rilpivirine]", "values": [{"measurement": "growth inhibitory effect in cancer cells", "value": "a growth inhibitory effect is exerted"}]}]}
